Data as given in publication PMC7652828.
These are yes or no findings as the source states them, for the method shown. In cells and extracts the contact can be indirect. Some results given as binding are weak or reduced against the parent protein; the word gives no strength.

By UniProt entry, the sequences of proteins in these tests, tags left out.
UniProt P29466: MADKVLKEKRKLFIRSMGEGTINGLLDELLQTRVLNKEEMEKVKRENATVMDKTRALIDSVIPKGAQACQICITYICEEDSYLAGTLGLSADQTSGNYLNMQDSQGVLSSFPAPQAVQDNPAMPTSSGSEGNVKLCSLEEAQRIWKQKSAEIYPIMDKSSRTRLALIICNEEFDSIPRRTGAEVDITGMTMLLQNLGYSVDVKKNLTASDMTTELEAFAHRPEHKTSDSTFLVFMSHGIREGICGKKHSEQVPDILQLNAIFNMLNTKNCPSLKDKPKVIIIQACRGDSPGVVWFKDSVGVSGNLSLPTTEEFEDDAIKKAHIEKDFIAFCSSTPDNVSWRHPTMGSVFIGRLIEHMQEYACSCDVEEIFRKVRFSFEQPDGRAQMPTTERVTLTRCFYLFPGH

Target: p62 (human (endogenous in Huh7)) (UniProt Q13501)
Assay: co-IP; Huh7 cells transfected with CD44 siRNA or control siRNA for 48 h, lysed in ice-cold IP buffer; 500 ul lysate with 2 ug antibody (caspase-1, p62, LC3B, NLRP3) or IgG control and protein A/G beads at 4 °C; washed three times; immunoblot

Substance: caspase-1 (from UniProt P29466 1-404)
- binding: binds
